According to article PMC7948947:
Results are given in words; binding and its absence hold for the method and conditions named. Binding seen in cells or lysates may run through a third protein. Some entries that bind do so weakly or less than the wild type. For part of these data: Sequences can lack the tags named with a protein.

Protein sequences, listed by entry. Tags and fused reporters are not part of them. Lines headed by an entry give the natural chain unless they say otherwise; changes in a name come on top. Chains listed by the source or under a name are the forms on record and can include a tag or linker. Residues count along the entry.
UniProt P67775: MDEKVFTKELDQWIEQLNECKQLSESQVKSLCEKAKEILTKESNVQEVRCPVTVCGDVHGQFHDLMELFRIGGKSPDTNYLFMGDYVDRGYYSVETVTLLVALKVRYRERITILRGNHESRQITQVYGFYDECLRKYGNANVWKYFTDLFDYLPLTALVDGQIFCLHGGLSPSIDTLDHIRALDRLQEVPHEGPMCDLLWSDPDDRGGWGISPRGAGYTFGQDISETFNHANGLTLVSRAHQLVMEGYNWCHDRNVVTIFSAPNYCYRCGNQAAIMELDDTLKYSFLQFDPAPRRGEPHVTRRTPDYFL
HA-tagged methylation site L309Δ PP2Ac mutant: residues 1-308 of P67775
UniProt P39688: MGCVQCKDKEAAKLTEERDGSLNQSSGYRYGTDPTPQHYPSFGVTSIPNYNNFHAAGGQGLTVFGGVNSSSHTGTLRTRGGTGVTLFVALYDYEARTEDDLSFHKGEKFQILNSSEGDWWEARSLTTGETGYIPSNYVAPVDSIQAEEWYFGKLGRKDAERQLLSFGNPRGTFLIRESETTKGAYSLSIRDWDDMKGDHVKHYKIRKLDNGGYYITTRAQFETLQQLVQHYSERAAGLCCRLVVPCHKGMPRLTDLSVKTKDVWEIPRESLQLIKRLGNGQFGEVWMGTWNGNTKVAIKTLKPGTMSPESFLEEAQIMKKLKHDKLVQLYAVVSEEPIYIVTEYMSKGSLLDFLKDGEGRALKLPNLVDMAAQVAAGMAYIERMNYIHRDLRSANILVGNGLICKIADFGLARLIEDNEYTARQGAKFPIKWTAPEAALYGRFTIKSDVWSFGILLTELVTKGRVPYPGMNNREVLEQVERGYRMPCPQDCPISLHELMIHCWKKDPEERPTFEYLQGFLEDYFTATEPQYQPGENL
UniProt P06241: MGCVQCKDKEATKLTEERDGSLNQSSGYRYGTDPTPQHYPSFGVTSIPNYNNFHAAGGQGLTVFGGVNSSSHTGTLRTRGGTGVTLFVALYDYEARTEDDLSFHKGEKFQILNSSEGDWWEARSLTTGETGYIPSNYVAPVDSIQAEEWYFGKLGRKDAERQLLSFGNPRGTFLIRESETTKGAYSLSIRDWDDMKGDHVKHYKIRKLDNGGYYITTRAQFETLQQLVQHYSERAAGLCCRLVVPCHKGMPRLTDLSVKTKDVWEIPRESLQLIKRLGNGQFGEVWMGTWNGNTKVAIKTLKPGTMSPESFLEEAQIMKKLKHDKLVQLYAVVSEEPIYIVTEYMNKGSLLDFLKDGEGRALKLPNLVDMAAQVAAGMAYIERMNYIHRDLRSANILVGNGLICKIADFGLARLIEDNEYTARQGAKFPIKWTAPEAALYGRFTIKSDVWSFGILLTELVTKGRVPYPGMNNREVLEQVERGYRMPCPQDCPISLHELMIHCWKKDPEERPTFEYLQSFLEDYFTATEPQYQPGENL

Key:
HA-tagged WT PP2Ac = HA-tagged WT PP2Ac (UniProt P67775); assay: co-IP; anti-HA–coupled magnetic beads, total lysates of N2a cells stably expressing HA-PP2Ac WT or L309Δ (EV control), overnight at 4 °C; Western blot for Fyn, HA, PP2Ac
[1] = target: HA-tagged methylation site L309Δ PP2Ac mutant (UniProt P67775); assay: as above
[2] = target: T1, Flag-tagged PP2A Bα (PPP2R2A) subunit (UniProt P63151); assay: co-IP; anti-Flag–coupled (M2) magnetic beads, total lysates of N2a cells coexpressing Flag–Bα and GFP–Fyn, overnight at 4 °C; Western blot for Fyn, PP2Ac, Bα
T1 sequence: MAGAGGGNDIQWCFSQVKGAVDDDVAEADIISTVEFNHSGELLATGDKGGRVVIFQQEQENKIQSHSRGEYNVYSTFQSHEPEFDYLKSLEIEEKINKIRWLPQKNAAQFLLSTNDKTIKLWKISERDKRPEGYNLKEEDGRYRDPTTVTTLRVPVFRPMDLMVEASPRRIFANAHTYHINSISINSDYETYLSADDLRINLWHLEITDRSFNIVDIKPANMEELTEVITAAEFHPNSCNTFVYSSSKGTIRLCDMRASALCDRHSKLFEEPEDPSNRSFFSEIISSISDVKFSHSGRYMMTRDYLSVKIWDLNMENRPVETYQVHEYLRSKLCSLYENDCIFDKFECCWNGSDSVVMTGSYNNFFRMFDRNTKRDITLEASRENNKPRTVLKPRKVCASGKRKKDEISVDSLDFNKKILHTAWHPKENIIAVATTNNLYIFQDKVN

Fyn (endogenous) (from UniProt P39688 1-537)
binding (HA-tagged WT PP2Ac): binds
binding [1]: no binding

GFP-tagged human Fyn (from UniProt P06241 1-537)
binding [2]: binds
